No constants are given. Whether binding was seen depends on the method and setting. Some binding calls cover weakened binding; strength is not graded here. Tags and fused reporters may be left off the sequences shown.
Tests used:
[1] = molecular target: T1, FRB-tagged Mss4 (bait at ER–PM contact sites) (Saccharomyces cerevisiae) (UniProt P38994); assay: enrichment of the prey at a bait confined to ER–PM contact sites by chemically induced dimerization (TIRFM); NG2–PIP4K2C HEK293A cells transfected with FKBP–CyB5, mCherry–MAPPER and an FRB-tagged bait; 1 µM rapamycin confines the bait to ER–PM contact sites; NG2–PIP4K2C intensity (ER:PM/PM) followed by time-lapse TIRFM
T1 sequence: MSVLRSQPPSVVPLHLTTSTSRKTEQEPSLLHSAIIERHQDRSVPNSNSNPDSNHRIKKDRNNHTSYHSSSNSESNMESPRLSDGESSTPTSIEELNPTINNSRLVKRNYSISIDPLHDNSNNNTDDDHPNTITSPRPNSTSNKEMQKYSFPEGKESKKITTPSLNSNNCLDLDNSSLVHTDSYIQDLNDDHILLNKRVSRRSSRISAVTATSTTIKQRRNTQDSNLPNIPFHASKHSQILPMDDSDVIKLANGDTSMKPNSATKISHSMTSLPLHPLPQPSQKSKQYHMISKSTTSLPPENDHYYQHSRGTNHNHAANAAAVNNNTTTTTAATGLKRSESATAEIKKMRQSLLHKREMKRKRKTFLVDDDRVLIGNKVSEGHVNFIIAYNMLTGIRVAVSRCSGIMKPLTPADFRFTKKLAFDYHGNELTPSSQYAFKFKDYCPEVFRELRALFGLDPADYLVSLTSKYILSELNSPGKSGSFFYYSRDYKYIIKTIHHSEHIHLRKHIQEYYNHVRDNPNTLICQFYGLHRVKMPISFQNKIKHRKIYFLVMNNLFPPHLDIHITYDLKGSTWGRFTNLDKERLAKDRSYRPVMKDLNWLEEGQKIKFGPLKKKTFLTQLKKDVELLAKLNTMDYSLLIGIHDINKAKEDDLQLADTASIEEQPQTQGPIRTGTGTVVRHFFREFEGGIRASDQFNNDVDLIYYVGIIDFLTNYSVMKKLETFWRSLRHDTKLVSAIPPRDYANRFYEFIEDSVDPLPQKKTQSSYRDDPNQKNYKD

The chains behind the UniProt entries cited, without tags or fusion partners.
UniProt Q99755: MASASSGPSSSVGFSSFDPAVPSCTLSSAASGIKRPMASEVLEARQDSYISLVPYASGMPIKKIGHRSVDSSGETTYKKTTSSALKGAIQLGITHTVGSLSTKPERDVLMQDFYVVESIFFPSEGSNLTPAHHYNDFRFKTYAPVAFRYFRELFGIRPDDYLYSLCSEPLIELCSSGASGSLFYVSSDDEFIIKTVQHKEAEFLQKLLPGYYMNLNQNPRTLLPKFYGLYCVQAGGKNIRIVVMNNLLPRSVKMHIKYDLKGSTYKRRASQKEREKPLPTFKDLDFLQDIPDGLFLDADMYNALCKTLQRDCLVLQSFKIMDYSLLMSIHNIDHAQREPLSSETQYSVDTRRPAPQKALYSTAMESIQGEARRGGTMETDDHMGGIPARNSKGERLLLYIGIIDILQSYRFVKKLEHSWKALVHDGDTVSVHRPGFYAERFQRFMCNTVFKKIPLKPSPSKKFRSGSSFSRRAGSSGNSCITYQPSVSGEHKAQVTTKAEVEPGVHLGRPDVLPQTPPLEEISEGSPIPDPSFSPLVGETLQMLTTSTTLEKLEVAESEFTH

[2] = molecular target: FRB-tagged PIP5K1A (bait at ER–PM contact sites) (human) (UniProt Q99755); assay: as above

binding [1]: no binding | binding [2]: binds
B1: NG2–PIP4K2C, endogenous PIP4K2C tagged with split NeonGreen2 (enzyme, UniProt Q8TBX8 1-421)
chain: MASSSVPPATVSAATAGPGPGFGFASKTKKKHFVQQKVKVFRAADPLVGVFLWGVAHSINELSQVPPPVMLLPDDFKASSKIKVNNHLFHRENLPSHFKFKEYCPQVFRNLRDRFGIDDQDYLVSLTRNPPSESEGSDGRFLISYDRTLVIKEVSSEDIADMHSNLSNYHQYIVKCHGNTLLPQFLGMYRVSVDNEDSYMLVMRNMFSHRLPVHRKYDLKGSLVSREASDKEKVKELPTLKDMDFLNKNQKVYIGEEEKKIFLEKLKRDVEFLVQLKIMDYSLLLGIHDIIRGSEPEEEAPVREDESEVDGDCSLTGPPALVGSYGTSPEGIGGYIHSHRPLGPGEFESFIDVYAIRSAEGAPQKEVYFMGLIDILTQYDAKKKAAHAAKTVKHGAGAEISTVHPEQYAKRFLDFITNIFA

From publication PMC10482388, “A novel homeostatic mechanism tunes PI(4,5)P2-dependent signaling at the plasma membrane” (Journal of Cell Science, 2023)
